# Taken from: PubChem BioAssay AID743454 (Peter MacCallum Cancer Centre, 2014)
# Aim: 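Genes whose loss kills vorinostat-resistant colon cancer cells under vorinostat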 (primary screen)
# Cells: human HCT116-VR colon cancer cells, selected for vorinostat resistance
# Reagents: siRNA pool against human genes, 40 nM siRNA pool
# Timing: vorinostat for 24 h, read-out about 72 h after transfection
# Conditions: vorinostat at 2.5 µM final
# Measured: 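Two measures, CellTiter-Fluor viability and luminescent caspase 3/7 activity, each as fold change against same-plate mock wells, mean of duplicates, then screen-wide robust z-score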
# Direction: viability robust z-score: higher = more viable cells than screen typical; caspase robust z-score: higher = more caspase 3/7 activity than screen typical
# Rule for the call: 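a knock-down is a hit when classed RV1 or RV2 for lowered viability, or CA1 or CA2 for caspase activation; those lethal without drug were dropped; hits were retested singly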
# Shown is an unselected part of about 18,000 reagents tested. 450 of them (2.5%) count as active. 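Single biological run; no consistent viability z cut-off exists, so the class columns, not z-scores, define the calls.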 Unmarked entries are inactive. Reagents against one gene are numbered here. Reagent sequences are not shown.
target,pool no.,viability hit class,caspase hit class,viability robust z-score,caspase robust z-score
ADCY2,1,no change,no change,-0.06,0.66
LMF1,1,no change,no change,-1.2,-0.27
C1orf94,1,no change,no change,-0.89,2.2
UFC1,1,no change,no change,0.5,-1.14
ASZ1,1,no change,no change,0.64,0.1
C20orf144,1,no change,no change,0.56,1.88
UBN1,1,no change,no change,1.15,2.81
SNIP1,1,no change,no change,-0.62,0.53
DPH2,1,no change,no change,0.94,-0.5
PACC1,1,no change,no change,0.1,1.03
ELMOD3,1,no change,no change,-0.06,-0.59
NAA20,1,no change,no change,1.76,0.35
PITPNM2,1,no change,no change,-0.74,1.7
GPR37L1,1,no change,no change,-0.63,1.69
ISX,1,no change,no change,0.15,-0.5
TLE2,1,no change,no change,0.32,-0.98
MKKS,1,no change,no change,-0.84,0.29
GARIN4,1,no change,no change,-0.53,-0.68
TFPI2,1,no change,no change,0.2,-0.84
CDK9,1,no change,no change,-0.01,-0.22
SSPN,1,no change,no change,-1.42,3.83
JDP2,1,no change,no change,-0.44,2.44
NDUFA6,1,no change,no change,-2.84,0.72
LRRC75A,1,no change,no change,-0.22,-0.15
CIRBP,1,no change,no change,-0.23,1.96
MAGEC2,1,no change,no change,0.3,0.29
SRPRB,1,no change,no change,0.43,0.12
GPRC5B,1,no change,no change,-0.16,-0.79
BCL2L14,1,no change,no change,-1,3.34
SCN1A,1,no change,no change,0.44,-0.68
LSM4,1,no change,no change,-0.85,-0.09
DVL1,1,no change,no change,-0.14,4.56
ZNF616,1,no change,no change,-0.6,0.07
GLIPR1L2,1,no change,no change,-0.16,2.01
HDIP1,1,no change,no change,0.76,1.5
PARVA,1,no change,no change,1.21,-0.12
KLHDC4,1,no change,no change,0.96,-0.78
SENP2,1,no change,no change,-0.7,1.57
PRCC,1,no change,no change,-0.69,0.02
GABRA3,1,no change,no change,-0.66,1.27
IL2RB,1,no change,no change,0.27,-0.36
SYTL3,1,RV2 (reduced viability) (active),no change,-3.27,1.43
UPF3B,1,no change,no change,0.26,-1.1
IKZF2,1,no change,no change,-0.33,-1.32
OCEL1,1,no change,no change,-0.24,1.88
PDS5B,1,no change,no change,0.18,-0.63
ANGEL2,1,no change,no change,0.29,0.73
SAMD15,1,no change,no change,1.25,2.02
AUP1,1,no change,no change,0.93,-0.94
PNMA3,1,no change,no change,1.29,-0.7
TTLL2,1,no change,no change,1.46,-0.14
SDC4,1,no change,no change,-1.2,1.75
MFAP1,1,no change,no change,-3.01,-0.7
OR52N4,1,no change,no change,-0.56,1.99
PAPSS1,1,no change,no change,0.77,-0.34
ARID3C,1,no change,no change,-0.58,-0.92
PIGB,1,no change,no change,-0.51,0.49
S100P,1,no change,no change,0.45,2
GGT7,1,no change,no change,-0.08,4.65
LRRIQ4,1,no change,no change,0.1,0.94
NTAQ1,1,no change,no change,0.26,-0.34
TAOK2,1,no change,no change,-0.08,0.27
NHSL2,1,no change,no change,0.68,-0.22
NHSL2,2,no change,no change,-0.8,0.84
FRMD7,1,no change,no change,-0.86,-0.38
TTBK1,1,no change,no change,-1.58,-0.76
SUGP1,1,no change,no change,-2.67,0.9
PIP5K1A,1,no change,no change,-0.15,-0.73
ERP44,1,no change,no change,-0.78,0.27
ZNF833P,1,no change,no change,0.78,-0.97
GAS2L1,1,no change,no change,-0.57,-1
FMNL2,1,no change,no change,-1.78,1.52
DYNLT2,1,no change,no change,0.45,0.11

Active calls (from the list above):
target,pool no.,viability hit class,caspase hit class,viability robust z-score,caspase robust z-score
SYTL3,1,RV2 (reduced viability) (active),no change,-3.27,1.43
